Measurements as given in patent US20120164140A1.
These are yes or no findings as the source states them, for the method shown. Some entries that bind do so weakly or less than the wild type. Sequences can lack the tags named with a protein.

How the values were obtained:
[1] = molecular target: T1, ^125I-labeled BMP-4 (human) (UniProt P12644); experiment: restatement in Example 8 of the solution binding result
T1 sequence (iodinated with ^125I by the modified chloramine-T method, looked up): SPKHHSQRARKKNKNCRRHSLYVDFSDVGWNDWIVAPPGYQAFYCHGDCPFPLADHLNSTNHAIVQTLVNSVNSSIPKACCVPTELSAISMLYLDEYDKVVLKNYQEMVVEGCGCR

[2] = molecular target: T2, ^125I-labeled BMP-2 (human) (UniProt P12643); experiment: as above
T2 sequence (iodinated with ^125I by the modified chloramine-T method, looked up): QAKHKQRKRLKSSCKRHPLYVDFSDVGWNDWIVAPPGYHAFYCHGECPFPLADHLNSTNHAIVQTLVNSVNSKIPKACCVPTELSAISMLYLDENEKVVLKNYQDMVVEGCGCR

[3] = molecular target: T2, ^125I-labeled BMP-2 (human); experiment: DSS crosslinking, Protein A bead precipitation, nonreducing SDS-PAGE, autoradiography
[4] = molecular target: T1, ^125I-labeled BMP-4 (human); experiment: 60 ng Hjv.Fc incubated with ^125I-ligand in solution, capture on protein A coated plates, gamma counting
[5] = molecular target: T2, ^125I-labeled BMP-2 (human); experiment: as above
[6] = molecular target: T1, ^125I-labeled BMP-4 (human); experiment: summary of solution binding and crosslinking assays
[7] = molecular target: T2, ^125I-labeled BMP-2 (human); experiment: as above
[8] = molecular target: T2, ^125I-labeled BMP-2 (human); experiment: DSS crosslinking in solution, Protein A bead precipitation, nonreducing SDS-PAGE, autoradiography
[9] = molecular target: T1, ^125I-labeled BMP-4 (human); experiment: 60 ng Hjv.Fc with ^125I-ligand overnight, protein A coated plates, gamma counter
[10] = molecular target: T2, ^125I-labeled BMP-2 (human); experiment: as above
[11] = molecular target: T3, soluble hemojuvelin fusion protein (Hjv.Fc): extracellular domain of mouse Hjv fused to the Fc portion of human immunoglobulin G (mouse; human) (UniProt Q7TQ32); experiment: DSS crosslinking of ^125I-BMP-2 to Hjv.Fc with excess unlabeled BMP-2 as competitor, autoradiography
T3 sequence (looked up): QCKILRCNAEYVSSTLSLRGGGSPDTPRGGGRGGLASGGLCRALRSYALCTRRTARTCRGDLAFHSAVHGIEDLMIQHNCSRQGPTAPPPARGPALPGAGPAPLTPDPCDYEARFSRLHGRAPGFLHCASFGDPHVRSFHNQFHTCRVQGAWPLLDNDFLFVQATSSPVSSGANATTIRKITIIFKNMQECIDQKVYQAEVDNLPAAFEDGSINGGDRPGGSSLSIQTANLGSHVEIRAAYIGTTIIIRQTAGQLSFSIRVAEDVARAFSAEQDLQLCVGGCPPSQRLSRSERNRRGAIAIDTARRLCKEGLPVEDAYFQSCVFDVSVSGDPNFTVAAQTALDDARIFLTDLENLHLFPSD

[12] = molecular target: T3, soluble hemojuvelin fusion protein (Hjv.Fc): extracellular domain of mouse Hjv fused to the Fc portion of human immunoglobulin G (mouse; human); experiment: competition: 80 ng cold BMP-2 against ^125I-BMP-2 or ^125I-BMP-4 for Hjv.Fc, protein A plates, gamma counting
[13] = molecular target: T3, soluble hemojuvelin fusion protein (Hjv.Fc): extracellular domain of mouse Hjv fused to the Fc portion of human immunoglobulin G (mouse; human); experiment: competition: 80 ng cold BMP-4 against ^125I-BMP-2 or ^125I-BMP-4 for Hjv.Fc, protein A plates, gamma counting

Measured: binding

B1: soluble hemojuvelin fusion protein (Hjv.Fc): extracellular domain of mouse Hjv fused to the Fc portion of human immunoglobulin G (Fc fusion, UniProt Q7TQ32 33-393, looked up, not shown: a dimerising Fc or GST)
chain: T3 sequence (looked up)
binds: [1] | [2] | [3] | [4] | [5] | [6] | [7] | [8] | [9] | [10]

B2: BMP-2 (unlabeled) (ligand, UniProt P12643 283-396, looked up)
chain: T2 sequence (iodinated with ^125I by the modified chloramine-T method, looked up)
binds: [11] | [12]

B3: BMP-4 (unlabeled) (ligand, UniProt P12644 293-408, looked up)
chain: T1 sequence (iodinated with ^125I by the modified chloramine-T method, looked up)
binds: [13]
